Measured values reported in the supplement of paper PMC11732987, “Enantioselective OTUD7B fragment discovery through chemoproteomics screening and high-throughput optimisation” (Communications Chemistry, 2025).
This is one part of the list. The data scatter; read single values as rough.

What was measured:
[1] = compound: ClCC(=O)N[C@@H]1CCCc2ccccc12; test: log2 mean competition ratio of IA-DTB cysteine labelling (DMSO/compound) (log2 ratio); higher = stronger cysteine engagement by compound; details: treatment time: 4 h, cell line lysate: HEK293T
Method: (§1)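 IA-DTB competitive cysteine chemoproteomics in HEK293T RIPA lysate. Lysates were treated with compound 29 or 30 at 50 or 200 µM for 4 h, then IA-DTB (500 µM, 1 h), trypsin-digested, NeutrAvidin-enriched and analysed by diaPASEF. Competition ratio = intensity DMSO / intensity compound (n=4 treated, n=64 DMSO); binding: mean log2 CR ≥ 1 and p ≤ 0.05 plus QC filters. Target is the cysteine site.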

[2] = compound: ClCC(=O)N[C@H]1CCCc2ccccc12; test: as above; details: treatment time: 4 h, cell line lysate: HEK293T
Method: as §1

| Target | log2 mean competition ratio ([1]; 50 µM) | log2 mean competition ratio ([1]; 200 µM) | log2 mean competition ratio ([2]; 50 µM) | log2 mean competition ratio ([2]; 200 µM) |
| --- | --- | --- | --- | --- |
| CRIP2 C126 (UniProt P52943) | -0.202 | -0.114 | 0.275 | 0.0531 |
| CUL7 C1569 (UniProt Q14999) | 0.109 | -0.0961 | -0.228 | 0.0123 |
| DCAF5 C812 (UniProt Q96JK2) | 0.144 | -0.0476 | -0.125 | 0.00125 |
| CYFIP1 C993 | 0.479 | 0.138 | 0.377 | -0.17 |
| CTPS1 C218 (UniProt P17812) | -0.0418 | 0.0595 | -0.434 | 0.00807 |
| DDX3X C341 (UniProt O00571) | 0.0661 | 0.0252 | -0.455 | 0.108 |
| CSE1L C272 (UniProt P55060) | 0.216 | -0.304 | 0.174 | -0.364 |
| DCAF10 C213 (UniProt Q5QP82) | -0.0181 | 0.0573 | -0.283 | -0.023 |
| CWF19L2 C214 (UniProt Q2TBE0) | -0.217 | -0.528 | 0.322 | -0.082 |
| DDX51 C338 (UniProt Q8N8A6) | -0.0601 | 0.163 | -0.23 | 0.121 |
| CSDE1 C464 (UniProt O75534) | -0.327 | -0.32 | -0.0271 | -0.0331 |
| DDB1 C128 (UniProt Q16531) | -0.124 | 0.196 | -0.355 | 0.0367 |
| DDHD2 C470 (UniProt O94830) | -0.139 | -0.101 | -0.242 | -0.00405 |
| CTU2 C268 (UniProt Q2VPK5) | -0.102 | 0.279 | -0.0795 | 0.31 |
| CTSC C136 (UniProt P53634) | 0.151 | -0.12 | 0.391 | -0.0736 |
| CTBP1 C54 | -0.295 | -0.0551 | -0.281 | -0.0576 |
| DCK C9 (UniProt P27707) | 0.141 | -0.277 | -0.241 | -0.132 |
| DCK C45 (UniProt P27707) | -0.487 | 0.0745 | 0.376 | 0.527 |
| CUL3 C251 (UniProt Q13618) | 0.0887 | -0.353 | 0.00994 | -0.353 |
| CTTN C112 (UniProt Q14247) | 0.229 | 0.285 | 0.262 | 0.269 |
| CTSB C319 (UniProt P07858) | -0.271 | 0.0848 | -0.243 | -0.0496 |
| DDI2 C361 (UniProt Q5TDH0) | -0.349 | 0.43 | -0.183 | 0.0468 |
| CTNND1 C429 (UniProt O60716) | 0.232 | 0.335 | 0.285 | 0.254 |
| CRYL1 C285 (UniProt Q9Y2S2) | 0.0733 | -0.18 | 0.163 | -0.278 |

Exported as comma-separated lines: entries from further up.
Target,log2 mean competition ratio ([1]; 50 µM),log2 mean competition ratio ([1]; 200 µM),log2 mean competition ratio ([2]; 50 µM),log2 mean competition ratio ([2]; 200 µM)
DCAF5 C812 (UniProt Q96JK2),0.144,-0.0476,-0.125,0.00125
DDX3X C341 (UniProt O00571),0.0661,0.0252,-0.455,0.108
CWF19L2 C214 (UniProt Q2TBE0),-0.217,-0.528,0.322,-0.082
CSDE1 C464 (UniProt O75534),-0.327,-0.32,-0.0271,-0.0331
DDB1 C128 (UniProt Q16531),-0.124,0.196,-0.355,0.0367
CTBP1 C54,-0.295,-0.0551,-0.281,-0.0576
DCK C9 (UniProt P27707),0.141,-0.277,-0.241,-0.132
DCK C45 (UniProt P27707),-0.487,0.0745,0.376,0.527
CTTN C112 (UniProt Q14247),0.229,0.285,0.262,0.269
DDI2 C361 (UniProt Q5TDH0),-0.349,0.43,-0.183,0.0468
CTNND1 C429 (UniProt O60716),0.232,0.335,0.285,0.254

Additional records follow:

| Target | log2 mean competition ratio ([1]; 50 µM) | log2 mean competition ratio ([1]; 200 µM) | log2 mean competition ratio ([2]; 50 µM) | log2 mean competition ratio ([2]; 200 µM) |
| --- | --- | --- | --- | --- |
| DAZAP1 C85 | 0.114 | -0.228 | 0.208 | -0.163 |
| CSNK2A2 C336 (UniProt P19784) | 0.0728 | -0.21 | 0.709 | 0.106 |
| DDX59 C345 (UniProt Q5T1V6) | -0.22 | -0.135 | 0.399 | -0.117 |
| DDX54 C586 (UniProt Q8TDD1) | 0.359 | 0.075 | 0.238 | 0.0916 |
| CSNK2A2 C148 (UniProt P19784) | -0.153 | -0.36 | 0.0451 | -0.288 |
| DCP1B C369 (UniProt Q8IZD4) | 0.22 | -0.104 | -0.0236 | 0.0727 |
| CSDE1 C506 (UniProt O75534) | -0.0121 | -0.115 | 0.156 | -0.138 |
| CTTNBP2 C307 | -0.116 | -0.274 | -0.515 | -0.201 |
| CUL5 C281 (UniProt Q93034) | 0.0269 | -0.492 | -0.117 | -0.561 |
| DAB2IP C459 (UniProt Q5VWQ8) | 0.0426 | 0.52 | -0.402 | 0.224 |
| CSRP2 C167 (UniProt Q16527) | 0.0273 | -0.346 | 0.458 | -0.079 |
| CSPG5 C399 (UniProt O95196) | 0.0699 | 0.337 | 0.186 | 0.17 |
| CUX1 C802 | -0.377 | -0.0578 | 0.227 | 0.0854 |
| CTTNBP2NL C352 (UniProt Q9P2B4) | -0.108 | 0.049 | -0.196 | 0.0989 |
| CXXC1 C549 (UniProt Q9P0U4) | -0.149 | 0.111 | -0.0356 | -0.028 |
| DCXR C138 (UniProt Q7Z4W1) | 0.139 | -0.0357 | -0.336 | 0.0528 |
| DACH1 C243 (UniProt Q9UI36) | -0.188 | 0.186 | -0.373 | 0.00409 |
| CXorf38 C300 (UniProt Q8TB03) | -0.155 | -0.13 | 0.414 | -0.0647 |
| CUL4B C810 | -0.297 | 0.00636 | -0.315 | 0.136 |
| DAPK3 C349 (UniProt O43293) | -0.69 | -0.192 | -0.0595 | -0.176 |
| DECR2 C13 (UniProt Q9NUI1) | -0.202 | 0.0969 | 0.415 | 0.244 |
| CRKL C249 (UniProt P46109) | 0.128 | 0.142 | 0.352 | 0.243 |
| CTPS1 C491 (UniProt P17812) | -0.0712 | -0.0466 | -0.107 | -0.00481 |
| CYB5R1 C208 (UniProt Q9UHQ9) | -0.191 | -0.283 | -0.189 | 0.0204 |
